According to article PMC11958651:
Results are given in words; binding and its absence hold for the method and conditions named. Binding seen in cells or lysates may run through a third protein. Some binding calls cover weakened binding; strength is not graded here.

Protein sequences, listed by entry. Tags and fused reporters are not part of them.
UniProt Q8CD54: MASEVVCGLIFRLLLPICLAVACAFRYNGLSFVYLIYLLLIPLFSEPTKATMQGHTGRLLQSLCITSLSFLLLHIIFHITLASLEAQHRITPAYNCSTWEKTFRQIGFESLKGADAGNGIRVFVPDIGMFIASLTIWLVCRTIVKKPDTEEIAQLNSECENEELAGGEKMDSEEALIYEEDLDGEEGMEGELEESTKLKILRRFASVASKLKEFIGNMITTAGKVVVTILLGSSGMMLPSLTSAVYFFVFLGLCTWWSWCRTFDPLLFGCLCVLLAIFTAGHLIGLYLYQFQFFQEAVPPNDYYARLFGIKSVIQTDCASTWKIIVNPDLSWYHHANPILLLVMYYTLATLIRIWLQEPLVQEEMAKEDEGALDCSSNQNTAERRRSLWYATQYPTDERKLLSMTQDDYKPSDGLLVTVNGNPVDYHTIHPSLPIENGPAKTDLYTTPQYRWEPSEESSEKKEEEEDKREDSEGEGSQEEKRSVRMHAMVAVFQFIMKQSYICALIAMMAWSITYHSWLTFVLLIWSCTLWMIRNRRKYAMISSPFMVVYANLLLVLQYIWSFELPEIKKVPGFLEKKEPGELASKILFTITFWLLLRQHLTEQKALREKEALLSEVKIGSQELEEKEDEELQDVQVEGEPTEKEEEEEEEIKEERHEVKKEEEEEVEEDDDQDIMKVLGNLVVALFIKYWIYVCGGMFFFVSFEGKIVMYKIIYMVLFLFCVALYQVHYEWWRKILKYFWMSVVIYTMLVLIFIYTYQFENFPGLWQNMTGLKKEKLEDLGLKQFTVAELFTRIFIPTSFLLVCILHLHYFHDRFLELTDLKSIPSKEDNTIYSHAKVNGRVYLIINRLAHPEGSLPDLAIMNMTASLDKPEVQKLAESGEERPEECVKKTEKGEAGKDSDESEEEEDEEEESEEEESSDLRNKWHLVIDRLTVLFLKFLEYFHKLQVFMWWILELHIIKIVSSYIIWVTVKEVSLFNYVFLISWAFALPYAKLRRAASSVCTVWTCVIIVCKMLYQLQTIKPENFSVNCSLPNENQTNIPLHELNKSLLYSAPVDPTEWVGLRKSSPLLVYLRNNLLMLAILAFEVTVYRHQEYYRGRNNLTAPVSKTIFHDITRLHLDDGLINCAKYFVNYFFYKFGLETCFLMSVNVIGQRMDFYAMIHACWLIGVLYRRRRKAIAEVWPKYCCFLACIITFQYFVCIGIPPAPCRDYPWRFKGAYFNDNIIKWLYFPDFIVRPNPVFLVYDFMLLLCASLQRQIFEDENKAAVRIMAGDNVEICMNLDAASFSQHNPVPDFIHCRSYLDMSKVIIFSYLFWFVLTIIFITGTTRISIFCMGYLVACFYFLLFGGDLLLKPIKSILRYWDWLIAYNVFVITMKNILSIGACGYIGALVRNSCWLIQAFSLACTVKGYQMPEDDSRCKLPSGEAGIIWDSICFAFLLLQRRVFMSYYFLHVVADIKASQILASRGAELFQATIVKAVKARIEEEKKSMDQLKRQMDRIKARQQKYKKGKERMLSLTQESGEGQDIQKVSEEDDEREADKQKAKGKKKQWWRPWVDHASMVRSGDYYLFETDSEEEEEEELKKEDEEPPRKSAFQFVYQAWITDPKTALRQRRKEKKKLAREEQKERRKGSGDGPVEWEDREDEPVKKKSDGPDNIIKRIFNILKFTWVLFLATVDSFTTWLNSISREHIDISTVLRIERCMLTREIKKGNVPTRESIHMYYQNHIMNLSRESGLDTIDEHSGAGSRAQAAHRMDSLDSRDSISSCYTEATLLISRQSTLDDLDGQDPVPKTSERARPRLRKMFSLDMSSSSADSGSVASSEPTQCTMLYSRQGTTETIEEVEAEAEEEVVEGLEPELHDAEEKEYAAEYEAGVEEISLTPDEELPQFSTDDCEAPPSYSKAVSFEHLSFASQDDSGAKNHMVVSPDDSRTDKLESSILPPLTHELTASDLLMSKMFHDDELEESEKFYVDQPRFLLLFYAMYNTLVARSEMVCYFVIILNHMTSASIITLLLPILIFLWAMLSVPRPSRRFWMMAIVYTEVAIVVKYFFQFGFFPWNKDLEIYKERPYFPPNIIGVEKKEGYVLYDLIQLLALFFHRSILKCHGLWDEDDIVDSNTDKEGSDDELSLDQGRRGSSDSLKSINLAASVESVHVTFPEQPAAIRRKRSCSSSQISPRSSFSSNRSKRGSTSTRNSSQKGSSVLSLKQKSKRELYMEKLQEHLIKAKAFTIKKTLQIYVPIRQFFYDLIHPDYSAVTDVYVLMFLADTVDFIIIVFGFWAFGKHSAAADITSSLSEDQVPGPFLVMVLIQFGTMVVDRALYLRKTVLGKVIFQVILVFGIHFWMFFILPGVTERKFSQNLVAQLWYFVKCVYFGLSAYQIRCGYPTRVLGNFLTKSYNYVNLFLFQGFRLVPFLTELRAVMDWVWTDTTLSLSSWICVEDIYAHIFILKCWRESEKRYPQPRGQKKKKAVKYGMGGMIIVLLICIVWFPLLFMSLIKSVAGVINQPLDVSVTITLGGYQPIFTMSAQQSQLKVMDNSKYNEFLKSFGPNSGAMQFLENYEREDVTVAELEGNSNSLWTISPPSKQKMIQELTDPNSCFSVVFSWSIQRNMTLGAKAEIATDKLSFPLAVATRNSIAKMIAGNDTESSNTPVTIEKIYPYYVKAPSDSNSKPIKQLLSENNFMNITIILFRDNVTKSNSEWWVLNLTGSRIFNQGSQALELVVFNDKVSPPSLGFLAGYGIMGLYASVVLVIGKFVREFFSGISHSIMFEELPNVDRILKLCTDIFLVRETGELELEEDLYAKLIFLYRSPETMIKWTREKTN

Biological target: T1, LPHN2/ADGRL2 (mouse (endogenous in mouse utricles)) (UniProt Q8JZZ7)
T1 sequence: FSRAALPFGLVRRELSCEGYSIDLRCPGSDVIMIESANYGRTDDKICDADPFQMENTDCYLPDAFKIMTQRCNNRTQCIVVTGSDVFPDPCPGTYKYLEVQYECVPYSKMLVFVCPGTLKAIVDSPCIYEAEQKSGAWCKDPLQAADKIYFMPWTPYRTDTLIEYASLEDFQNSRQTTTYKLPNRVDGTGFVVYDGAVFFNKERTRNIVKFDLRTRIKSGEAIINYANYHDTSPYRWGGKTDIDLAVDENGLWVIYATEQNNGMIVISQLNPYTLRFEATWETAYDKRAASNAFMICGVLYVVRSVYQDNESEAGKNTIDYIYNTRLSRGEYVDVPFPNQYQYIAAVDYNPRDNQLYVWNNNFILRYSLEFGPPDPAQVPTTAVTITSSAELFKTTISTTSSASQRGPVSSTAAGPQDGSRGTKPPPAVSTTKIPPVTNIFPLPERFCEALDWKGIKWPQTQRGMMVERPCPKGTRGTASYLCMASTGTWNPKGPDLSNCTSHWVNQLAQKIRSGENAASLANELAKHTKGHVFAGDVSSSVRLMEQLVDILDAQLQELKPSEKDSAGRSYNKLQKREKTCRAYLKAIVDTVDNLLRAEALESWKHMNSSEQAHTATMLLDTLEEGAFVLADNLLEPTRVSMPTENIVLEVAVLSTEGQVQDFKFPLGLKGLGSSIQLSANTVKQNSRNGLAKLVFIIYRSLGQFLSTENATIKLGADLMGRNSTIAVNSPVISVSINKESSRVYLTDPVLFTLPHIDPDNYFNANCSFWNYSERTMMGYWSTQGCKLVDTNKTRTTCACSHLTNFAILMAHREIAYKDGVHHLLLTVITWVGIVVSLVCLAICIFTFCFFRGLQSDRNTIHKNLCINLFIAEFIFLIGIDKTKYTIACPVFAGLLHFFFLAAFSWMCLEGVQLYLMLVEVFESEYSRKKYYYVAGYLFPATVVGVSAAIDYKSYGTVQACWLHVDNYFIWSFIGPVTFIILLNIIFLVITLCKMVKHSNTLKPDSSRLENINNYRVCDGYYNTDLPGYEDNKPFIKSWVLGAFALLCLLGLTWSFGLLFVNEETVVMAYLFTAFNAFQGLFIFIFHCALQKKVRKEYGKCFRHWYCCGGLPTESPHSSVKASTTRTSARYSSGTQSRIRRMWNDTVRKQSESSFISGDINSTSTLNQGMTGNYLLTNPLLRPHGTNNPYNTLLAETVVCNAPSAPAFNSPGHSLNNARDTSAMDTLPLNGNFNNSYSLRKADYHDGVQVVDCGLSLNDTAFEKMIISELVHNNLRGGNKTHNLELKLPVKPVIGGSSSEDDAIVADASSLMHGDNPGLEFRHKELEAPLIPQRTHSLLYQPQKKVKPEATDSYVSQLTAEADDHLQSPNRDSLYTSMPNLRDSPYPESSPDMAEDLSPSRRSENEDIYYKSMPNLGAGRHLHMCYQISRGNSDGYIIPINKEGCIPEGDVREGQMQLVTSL
Assay: co-IP; lysates of WT mouse utricles in NP40 lysis buffer with phosphatase and protease inhibitors; immunoprecipitated with LPHN2-antibody-conjugated agarose overnight at 4 °C, washed with PBS, western blot

For PIEZO2 (from UniProt Q8CD54 1-2822), the binding was “no binding”.

B1: transmembrane channel-like protein 1 (TMC1) (protein, UniProt Q8R4P5 1-757)
chain: MLQIQVEEKEEDTEESSSEEEEDKLPRRESLRPKRKRTRDVINEDDPEPEPEDEETRKAREKERRRRLRRGAEEEEEIDEEELERLKALLDENRQMIATVKCKPWKMEKKIEVLKEAKKFVSENEGALGKGKGKKWFAFKMMMAKKWAKFLRDFENFKAACVPWENKIKAIESQFGSSVASYFLFLRWMYGVNMVLFVLTFSLIMLPEYLWGLPYGSLPRKTVPRAEEASAANFGVLYDFNGLAQYSVLFYGYYDNKRTIGWLNFRLPLSYFLVGIMCIGYSFLVVLKAMTKNIGDDGGGDDNTFNFSWKVFCSWDYLIGNPETADNKFNSITMNFKEAIIEERAAQVEENIHLIRFLRFLANFFVFLTLGASGYLIFWAVKRSQEFAQQDPDTLGWWEKNEMNMVMSLLGMFCPTLFDLFAELEDYHPLIALKWLLGRIFALLLGNLYVFILALMDEINNKIEEEKLVKANITLWEANMIKAYNESLSGLSGNTTGAPFFVHPADVPRGPCWETMVGQEFVRLTVSDVLTTYVTILIGDFLRACFVRFCNYCWCWDLEYGYPSYTEFDISGNVLALIFNQGMIWMGSFFAPSLPGINILRLHTSMYFQCWAVMCCNVPEARVFKASRSNNFYLGMLLLILFLSTMPVLYMIVSLPPSFDCGPFSGKNRMFEVIGETLEHDFPSWMAKILRQLSNPGLVIAVILVMVLTIYYLNATAKGQKAANLDLKKKMKQQALENKMRNKKMAAARAAAAAGGQ
For B1, the binding was “binds”.
